Data taken from PMC5783870.
These are yes or no findings as the source states them, for the method shown. Binding seen in cells or lysates may run through a third protein. Some results given as binding are weak or reduced against the parent protein; the word gives no strength.

Sequences of proteins named here, by UniProt entry; tags and fusion partners are left off. Residues count along the entry.
UniProt Q9QUK6, residues 26-835: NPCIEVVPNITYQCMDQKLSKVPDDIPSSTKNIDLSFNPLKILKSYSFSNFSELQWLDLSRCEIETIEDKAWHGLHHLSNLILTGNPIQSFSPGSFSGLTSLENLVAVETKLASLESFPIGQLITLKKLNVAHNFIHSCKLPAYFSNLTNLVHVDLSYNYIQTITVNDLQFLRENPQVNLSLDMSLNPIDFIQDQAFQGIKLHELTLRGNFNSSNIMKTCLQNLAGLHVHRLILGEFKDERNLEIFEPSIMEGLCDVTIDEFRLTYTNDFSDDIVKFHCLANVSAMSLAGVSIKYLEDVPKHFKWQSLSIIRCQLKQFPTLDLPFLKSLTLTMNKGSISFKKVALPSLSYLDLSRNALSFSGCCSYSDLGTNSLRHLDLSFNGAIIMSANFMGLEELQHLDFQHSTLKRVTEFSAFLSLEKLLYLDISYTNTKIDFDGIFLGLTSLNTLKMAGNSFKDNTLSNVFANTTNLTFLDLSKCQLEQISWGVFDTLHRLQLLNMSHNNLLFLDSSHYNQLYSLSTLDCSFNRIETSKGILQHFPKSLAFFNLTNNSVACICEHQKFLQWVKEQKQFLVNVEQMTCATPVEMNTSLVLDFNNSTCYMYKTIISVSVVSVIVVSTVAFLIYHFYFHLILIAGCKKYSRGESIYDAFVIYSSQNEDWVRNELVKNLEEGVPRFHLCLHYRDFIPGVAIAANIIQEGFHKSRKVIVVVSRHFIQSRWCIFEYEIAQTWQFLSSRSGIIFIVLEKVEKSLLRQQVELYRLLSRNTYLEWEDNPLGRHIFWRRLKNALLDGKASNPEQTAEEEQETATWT
UniProt O00206, residues 24-839: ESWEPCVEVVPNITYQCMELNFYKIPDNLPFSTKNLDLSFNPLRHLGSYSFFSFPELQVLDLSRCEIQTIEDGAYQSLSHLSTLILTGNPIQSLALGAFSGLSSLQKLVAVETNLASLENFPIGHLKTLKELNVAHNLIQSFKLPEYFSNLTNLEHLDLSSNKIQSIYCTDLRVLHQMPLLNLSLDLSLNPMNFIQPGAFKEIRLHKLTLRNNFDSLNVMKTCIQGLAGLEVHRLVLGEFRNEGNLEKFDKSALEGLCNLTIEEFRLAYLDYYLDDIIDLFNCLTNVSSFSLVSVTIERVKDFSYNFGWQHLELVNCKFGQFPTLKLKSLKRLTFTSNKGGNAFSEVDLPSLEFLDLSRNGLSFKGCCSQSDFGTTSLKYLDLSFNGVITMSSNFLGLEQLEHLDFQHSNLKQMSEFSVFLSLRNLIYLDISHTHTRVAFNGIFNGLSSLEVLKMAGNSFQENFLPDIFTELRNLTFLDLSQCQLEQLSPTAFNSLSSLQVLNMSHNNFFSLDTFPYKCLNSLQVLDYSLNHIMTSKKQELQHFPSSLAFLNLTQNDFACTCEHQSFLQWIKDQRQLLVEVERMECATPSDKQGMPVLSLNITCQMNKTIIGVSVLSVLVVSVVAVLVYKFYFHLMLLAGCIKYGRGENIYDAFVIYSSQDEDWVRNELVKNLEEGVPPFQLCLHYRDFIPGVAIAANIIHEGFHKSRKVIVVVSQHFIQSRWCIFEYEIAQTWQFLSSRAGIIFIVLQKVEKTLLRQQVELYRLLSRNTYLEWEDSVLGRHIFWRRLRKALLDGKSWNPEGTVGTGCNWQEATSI

Tests used:
[1] = target: Toll-like receptor 4 (TLR4), mouse, endogenous in liver tissue (mouse (endogenous in liver tissue of C57BL/6 mice)) (UniProt Q9QUK6); assay: co-IP; liver tissue samples of mice (control diet, HFD, HFD with L6H21, MD2-/-) incubated with anti-TLR4 antibody at 4°C overnight, precipitated with protein G-Sepharose beads at 4°C for 3 hrs; MD2 detected by Western blot
[2] = target: Toll-like receptor 4 (TLR4), human, endogenous in HepG2 cells (human (endogenous in HepG2)) (UniProt O00206); assay: co-IP; HepG2 cell protein samples (pre-treated with L6H21 0.4, 1.0 or 2.5 μM for 1 hr, then PA 200 μM for 24 hrs) incubated with anti-TLR4 antibody at 4°C overnight, precipitated with protein G-Sepharose beads at 4°C for 3 hrs; MD2 detected by Western blot

Row | binding [1] | binding [2] | Binder
1 | binds | – | Myeloid differentiation factor 2 (MD2), mouse, endogenous in liver tissue (protein, UniProt Q9JHF9 19-160) EKQQWFCNSSDAIISYSYCDHLKFPISISSEPCIRLRGTNGFVHVEFIPRGNLKYLYFNLFISVNSIELPKRKEVLCHGHDDDYSFCRALKGETVNTSIPFSFEGILFPKGHYRCVAEAIAGDTEEKLFCLNFTIIHRRDVN
2 | – | binds | Myeloid differentiation factor 2 (MD2), human, endogenous in HepG2 cells (protein, UniProt Q9Y6Y9 19-160) QKQYWVCNSSDASISYTYCDKMQYPISINVNPCIELKRSKGLLHIFYIPRRDLKQLYFNLYITVNTMNLPKRKEVICRGSDDDYSFCRALKGETVNTTISFSFKGIKFSKGKYKCVVEAISGSPEEMLFCLEFVILHQPNSN
